In paper doi:10.1101/2021.04.11.439364:
No constants are given. Whether binding was seen depends on the method and setting. Binding seen in cells or lysates may run through a third protein. Some binding calls cover weakened binding; strength is not graded here.

Amino acid sequences for entries named in this document (tags omitted). A change or cut given only in a name is not applied to a line headed by its entry. Residues count along the entry.
UniProt P16671: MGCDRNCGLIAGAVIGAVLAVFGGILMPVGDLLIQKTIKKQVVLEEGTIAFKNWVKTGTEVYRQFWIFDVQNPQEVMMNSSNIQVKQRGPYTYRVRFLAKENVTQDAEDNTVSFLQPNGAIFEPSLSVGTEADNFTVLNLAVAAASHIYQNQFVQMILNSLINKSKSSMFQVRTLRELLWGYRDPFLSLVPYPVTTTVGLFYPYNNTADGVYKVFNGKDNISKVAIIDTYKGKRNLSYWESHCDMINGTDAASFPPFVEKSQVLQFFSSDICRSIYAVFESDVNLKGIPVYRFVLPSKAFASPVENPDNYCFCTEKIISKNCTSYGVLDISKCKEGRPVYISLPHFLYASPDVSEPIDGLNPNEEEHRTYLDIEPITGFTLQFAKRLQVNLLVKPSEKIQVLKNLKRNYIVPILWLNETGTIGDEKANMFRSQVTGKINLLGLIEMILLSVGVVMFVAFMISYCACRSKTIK
UniProt P35951, residues 22-862: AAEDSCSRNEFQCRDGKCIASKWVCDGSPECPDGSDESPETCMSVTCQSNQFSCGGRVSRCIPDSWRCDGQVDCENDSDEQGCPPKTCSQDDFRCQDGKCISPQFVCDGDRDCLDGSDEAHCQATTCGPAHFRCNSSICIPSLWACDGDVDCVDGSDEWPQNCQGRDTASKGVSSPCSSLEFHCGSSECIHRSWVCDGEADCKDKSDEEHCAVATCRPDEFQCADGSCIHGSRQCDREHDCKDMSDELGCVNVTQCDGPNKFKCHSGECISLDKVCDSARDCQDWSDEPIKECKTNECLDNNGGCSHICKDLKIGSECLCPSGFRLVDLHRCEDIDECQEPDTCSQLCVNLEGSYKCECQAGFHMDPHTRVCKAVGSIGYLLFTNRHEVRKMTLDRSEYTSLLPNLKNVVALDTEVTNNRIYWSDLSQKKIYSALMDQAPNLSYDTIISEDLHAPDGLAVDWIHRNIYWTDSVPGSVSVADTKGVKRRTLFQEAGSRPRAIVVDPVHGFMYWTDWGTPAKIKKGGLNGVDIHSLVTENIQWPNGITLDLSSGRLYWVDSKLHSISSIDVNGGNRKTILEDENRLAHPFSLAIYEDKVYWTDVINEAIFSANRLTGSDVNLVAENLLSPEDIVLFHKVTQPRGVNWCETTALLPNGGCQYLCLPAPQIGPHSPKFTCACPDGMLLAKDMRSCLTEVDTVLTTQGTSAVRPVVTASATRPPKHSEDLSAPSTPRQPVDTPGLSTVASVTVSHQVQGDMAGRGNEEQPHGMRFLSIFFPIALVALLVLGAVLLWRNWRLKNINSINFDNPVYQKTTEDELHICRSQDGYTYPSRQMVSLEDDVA
UniProt P06213: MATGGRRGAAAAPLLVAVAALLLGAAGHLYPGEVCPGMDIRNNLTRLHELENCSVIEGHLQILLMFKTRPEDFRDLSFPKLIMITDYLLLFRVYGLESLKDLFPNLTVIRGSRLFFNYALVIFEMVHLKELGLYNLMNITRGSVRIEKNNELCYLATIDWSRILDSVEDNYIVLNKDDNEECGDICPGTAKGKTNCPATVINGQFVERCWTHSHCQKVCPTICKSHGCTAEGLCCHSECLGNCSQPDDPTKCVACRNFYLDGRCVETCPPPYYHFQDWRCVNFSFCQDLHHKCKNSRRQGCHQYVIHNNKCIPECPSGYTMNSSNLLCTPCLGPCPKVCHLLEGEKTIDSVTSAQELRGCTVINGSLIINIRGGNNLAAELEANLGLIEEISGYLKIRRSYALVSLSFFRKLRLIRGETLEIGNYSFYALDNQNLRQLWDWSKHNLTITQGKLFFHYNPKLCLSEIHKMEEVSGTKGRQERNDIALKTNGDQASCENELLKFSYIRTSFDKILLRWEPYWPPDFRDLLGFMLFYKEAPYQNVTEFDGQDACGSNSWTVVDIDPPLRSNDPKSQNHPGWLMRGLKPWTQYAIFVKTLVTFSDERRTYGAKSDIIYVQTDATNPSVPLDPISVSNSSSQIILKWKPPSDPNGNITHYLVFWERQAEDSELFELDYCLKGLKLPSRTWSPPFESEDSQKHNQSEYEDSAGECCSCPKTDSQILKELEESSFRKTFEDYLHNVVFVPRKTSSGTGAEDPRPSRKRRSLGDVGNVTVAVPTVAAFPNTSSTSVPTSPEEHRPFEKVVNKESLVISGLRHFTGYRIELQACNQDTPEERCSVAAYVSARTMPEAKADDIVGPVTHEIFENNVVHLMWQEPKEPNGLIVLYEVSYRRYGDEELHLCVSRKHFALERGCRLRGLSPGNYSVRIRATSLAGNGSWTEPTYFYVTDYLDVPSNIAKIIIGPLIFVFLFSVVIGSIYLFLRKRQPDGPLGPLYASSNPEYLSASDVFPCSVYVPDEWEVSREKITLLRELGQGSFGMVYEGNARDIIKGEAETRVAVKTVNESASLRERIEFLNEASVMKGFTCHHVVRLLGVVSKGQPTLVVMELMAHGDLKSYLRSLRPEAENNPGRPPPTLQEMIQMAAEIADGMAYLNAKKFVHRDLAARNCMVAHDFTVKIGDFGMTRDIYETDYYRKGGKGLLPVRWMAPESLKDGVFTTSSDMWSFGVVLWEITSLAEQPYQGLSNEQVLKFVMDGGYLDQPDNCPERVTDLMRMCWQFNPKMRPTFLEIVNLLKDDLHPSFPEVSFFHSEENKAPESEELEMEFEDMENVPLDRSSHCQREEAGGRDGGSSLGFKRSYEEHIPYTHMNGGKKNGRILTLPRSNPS

Legend:
[1] = target: T1, asialoglycoprotein receptor 1 (ASGR1), endogenous, human (human (endogenous in HepG2-PCSK9-KO)) (UniProt P07306); assay: co-IP
T1 sequence: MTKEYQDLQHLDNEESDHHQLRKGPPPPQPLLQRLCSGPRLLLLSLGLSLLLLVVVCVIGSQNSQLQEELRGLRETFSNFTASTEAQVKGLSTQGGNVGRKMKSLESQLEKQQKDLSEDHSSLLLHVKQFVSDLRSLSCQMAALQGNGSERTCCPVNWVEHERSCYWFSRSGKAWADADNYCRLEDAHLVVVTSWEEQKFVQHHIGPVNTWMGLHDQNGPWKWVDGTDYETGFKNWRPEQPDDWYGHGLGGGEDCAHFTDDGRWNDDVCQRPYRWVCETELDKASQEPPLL

[2] = target: T2, ASGR1, endogenous, mouse liver (mouse (endogenous in liver)) (UniProt P34927); assay: co-IP
T2 sequence: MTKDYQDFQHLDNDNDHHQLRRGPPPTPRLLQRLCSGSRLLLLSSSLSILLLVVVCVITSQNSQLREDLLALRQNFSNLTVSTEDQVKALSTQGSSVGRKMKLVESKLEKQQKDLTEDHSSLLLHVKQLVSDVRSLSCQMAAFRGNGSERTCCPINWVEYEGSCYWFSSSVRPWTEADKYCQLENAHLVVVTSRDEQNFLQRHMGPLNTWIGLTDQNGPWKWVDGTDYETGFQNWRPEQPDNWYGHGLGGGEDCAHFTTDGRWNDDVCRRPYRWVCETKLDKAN

Substance | binding [1] | binding [2]
CD36, endogenous, human (from UniProt P16671 1-472) (receptor) | no binding | 
LDLR, endogenous, mouse liver (from UniProt P35951 22-862) (receptor) |  | binds
insulin receptor (IR), endogenous, human (from UniProt P06213) | no binding | 
